Reference: patent US20050261331A1, “Substituted pyrrolopyridines” (priority 2002, published 2005)
pIC50: −log10 of the molar value. Counter-ions that a name gives are not always drawn. Some of these results come from one statement about several compounds together. At least one structure is not confirmed: it was looked up by name or label, or the drawing left a doubt.

molecular target: T1, recombinant human Itk kinase domain fused with GST (Homo sapiens, UniProt Q08881); assay: Itk LANCE TRF Assay; format: biochemical; conditions: 160 ng/well Itk, 2 μM peptide substrate, 50 μM ATP, 50 minutes RT; statement for all Examples; read-out: IC50 values for inhibition of Itk activity
T1 construct: recombinant human Itk kinase domain fused with GST; made in house; host or cells: High Five insect cells
T1 sequence (Q08881 363-615 limits assumed): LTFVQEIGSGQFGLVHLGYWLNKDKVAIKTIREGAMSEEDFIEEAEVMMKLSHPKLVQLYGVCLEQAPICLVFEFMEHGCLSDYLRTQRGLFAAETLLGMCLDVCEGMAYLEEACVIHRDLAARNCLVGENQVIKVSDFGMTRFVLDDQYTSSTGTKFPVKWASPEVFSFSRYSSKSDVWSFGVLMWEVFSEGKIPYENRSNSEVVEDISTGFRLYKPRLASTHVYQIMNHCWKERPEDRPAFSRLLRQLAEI
Description: The Itk kinase assay utilized recombinant human Itk kinase domain fused with GST (Glutathione S-Transferase). The protein was expressed in High five insect cells, purified in one step on an affinity chromatography glutathione column and stored in 50 mM Tris/HCl (pH 7.6), 150 mM NaCl, 5% (w/v) mannitol, 1 mM DTT, 30% glycerol at −70° C. The kinase substrate used in the assay was a biotinylated peptide derived from the Src-optimal substrate (Nair et al, J. Med. Chem., 38: 4276, 1995; biotin-AEEEIYGEFEAKKKK).
The assay additions were as follows: Test compounds (or controls; 1 μL in 100% DMSO) were added to black 96-well flat-bottomed plates (Greiner 655076) followed by 20 μL Itk in assay buffer and the reaction was started by adding 20 μL ATP and peptide substrate in assay buffer. The assay buffer constitution during phosphorylation was: 50 mM HEPES (pH 6.8), 10 mM MgCl2, 0.015% Brij 35, 1 mM DTT, 10% glycerol, 160 ng/well Itk, 2 μM peptide substrate and 50 μM ATP. The assay was stopped after 50 minutes (RT) by adding 150 μL ice-cold Stop solution (50 mM Tris/HCl, pH 7.5, 10 mM EDTA, 0.9% NaCl and 0.1% BSA) together with LANCE reagents (2 nM PT66-Eu^3+, Wallac AD0069 and 5 μg/ml Streptavidin-APC, Wallac AD0059. Both concentrations were final in stopped assay solution). The plates were measured on a Wallac 1420 Victor 2 instrument with TRF settings after 1 h incubation, and the ratio (665 signal/615 signal)*10000 was used to calculate the inhibition values. IC50 values were determined using XLfit.

pIC50, > 4.60:
COc1ccc(-c2c(-c3ccccc3)[nH]c3ncc(Br)cc23)cc1 [Example 1, 5-Bromo-3-(4-methoxyphenyl)-2-phenyl-1H-pyrrolo[2,3-b]pyridine]
COc1cccc(-c2c(-c3ccccc3)[nH]c3ncc(Br)cc23)c1 [Example 2, 5-Bromo-3-(3-methoxyphenyl)-2-phenyl-1H-pyrrolo[2,3-b]pyridine]
N#Cc1ccc(-c2c(-c3ccccc3)[nH]c3ncc(Br)cc23)cc1 [Example 3, 4-(5-Bromo-2-phenyl-1H-pyrrolo[2,3-b]pyridin-3-yl)benzonitrile]
Brc1cnc2[nH]c(-c3ccco3)c(-c3ccccc3)c2c1 [Example 4, 5-Bromo-2-(2-furyl)-3-phenyl-1H-pyrrolo[2,3-b]pyridine]
CN(C)CCCOc1ccc(-c2c(-c3ccco3)[nH]c3ncc(Br)cc23)cc1 [Example 5, 3-{4-[S-Bromo-2-(2-furyl)-1H-pyrrolo[2,3-b]pyridin-3-yl]phenoxy}-N,N-dimethylpropan-1-amine trifluoroacetate]
Brc1cnc2[nH]c(-c3ccccc3)c(-c3ccc(N4CCOCC4)cc3)c2c1 [Example 6, 5-Bromo-3-(4-morpholin-4-ylphenyl)-2-phenyl-1H-pyrrolo[2,3-b]pyridine]
Brc1cnc2[nH]c(-c3ccccc3)c(-c3ccccc3)c2c1 [Example 7, 5-Bromo-2,3-diphenyl-1H-pyrrolo[2,3-b]pyridine]
Brc1cnc2[nH]c(-c3nccs3)c(-c3ccccc3)c2c1 [Example 11, 5-Bromo-3-phenyl-2-(1,3-thiazol-2-yl)-1H-pyrrolo[2,3-b]pyridine]
Brc1cnc2[nH]c(-c3ccccc3)c(-c3ccco3)c2c1 [Example 12, 5-Bromo-3-furan-2-yl-2-phenyl-1-H-pyrrolo[2,3-b]pyridine]
CC(=O)NCc1ccc(-c2c(-c3ccccc3)[nH]c3ncc(Br)cc23)o1 [Example 13, N-[5-(5-Bromo-2-phenyl-1-H-pyrrolo[2,3-b]pyridin-3-yl)-furan-2-ylmethyl]-acetamide]
NCc1ccc(-c2c(-c3ccccc3)[nH]c3ncc(Br)cc23)o1 [Example 14, 5-Bromo-3-(5-aminomethylfuran-2-yl)-2-phenyl-1H-pyrrolo[2,3-b]pyridine]
Brc1cnc2[nH]c(-c3ccco3)c(-c3ccco3)c2c1 [Example 15, 5-Bromo-2,3-difuran-2-yl-1H-pyrrolo[2,3-b]pyridine]
COC(=O)c1ccc(-c2[nH]c3ncc(Br)cc3c2-c2ccccc2)[nH]1 [Example 16, Methyl 5-(5-bromo-3-phenyl-1H-pyrrolo[2,3-b]pyridin-2-yl)-1H-pyrrole-2-carboxylate]
Brc1cnc2[nH]c(-c3cc[nH]c3)c(-c3ccccc3)c2c1 [Example 17, 5-Bromo-3-phenyl-2-(1H-pyrrol-3-yl)-1H-pyrrolo[2,3-b]pyridine]
Brc1cnc2[nH]c(-c3ncco3)c(-c3ccccc3)c2c1 [Example 18, 5-Bromo-3-phenyl-2-(1,3-oxazol-2-yl)-1H-pyrrolo[2,3-b]pyridine]
Oc1cccc(-c2c(-c3ccccc3)[nH]c3ncc(Br)cc23)c1 [Example 19, 3-(5-Bromo-2-phenyl-1H-pyrrolo[2,3-b]pyridin-3-yl)phenol]
COc1ccc(-c2c(-c3ccccc3)[nH]c3ncc(C#N)cc23)cc1 [Example 20, 3-(4-Methoxyphenyl)-2-phenyl-1H-pyrrolo[2,3-b]pyridine-5-carbonitrile]
OC(CNCCN1CCCC1)COc1ccc(-c2c(-c3ccccc3)[nH]c3ncc(Br)cc23)cc1 (centres unmarked) [Example 21, 1-[4-(5-Bromo-2-phenyl-1H-pyrrolo[2,3-b]pyridin-3-yl)phenoxy]-3-[(2-pyrrolidin-1-ylethyl)amino]propan-2-ol dihydrochloride]
CN1CCCC1CCOc1ccc(-c2c(-c3ccccc3)[nH]c3ncc(Br)cc23)cc1 (centres unmarked) [Example 23, 5-Bromo-3-{4-[2-(1-methylpyrrolidin-2-yl)ethoxy]phenyl}-2-phenyl-1H-pyrrolo[2,3-b]pyridine trifluoroacetate]
Brc1cnc2[nH]c(-c3ccccc3)c(-c3ccc(OCCN4CCCC4)cc3)c2c1 [Example 24, 5-Bromo-2-phenyl-3-[4-(2-pyrrolidin-1-ylethoxy)phenyl]-1H-pyrrolo[2,3-b]pyridine trifluoroacetate]
Brc1cnc2[nH]c(-c3ccccc3)c(-c3ccc(OCCN4CCOCC4)cc3)c2c1 [Example 25, 5-Bromo-3-[4-(2-morpholin-4-ylethoxy)phenyl]-2-phenyl-1H-pyrrolo[2,3-b]pyridine trifluoroacetate]
Brc1cnc2[nH]c(-c3ccccc3)c(-c3cccc(OCCN4CCOCC4)c3)c2c1 [Example 26, 5-Bromo-3-[3-(2-morpholin-4-ylethoxy)phenyl]-2-phenyl-1H-pyrrolo[2,3-b]pyridine trifluoroacetate]
CN(C)CCCOc1ccc(-c2c(-c3ccccc3)[nH]c3ncc(Br)cc23)cc1 [Example 27, 3-[4-(5-Bromo-2-phenyl-1H-pyrrolo[2,3-b]pyridin-3-yl)phenoxy]-N,N-dimethylpropan-1-amine trifluoroacetate]
COCCOCCOc1ccc(-c2c(-c3ccccc3)[nH]c3ncc(Br)cc23)cc1 [Example 28, 5-Bromo-3-{4-[2-(2-methoxyethoxy)ethoxy]phenyl}-2-phenyl-1H-pyrrolo[2,3-b]pyridine]
CN1CCCC1CCOc1cccc(-c2c(-c3ccccc3)[nH]c3ncc(Br)cc23)c1 (centres unmarked) [Example 29, 5-Bromo-3-{3-[2-(1-methylpyrrolidin-2-yl)ethoxy]phenyl}-2-phenyl-1H-pyrrolo[2,3-b]pyridine trifluoroacetate]
CN(C)CCCOc1ccc(-c2c(-c3ccccc3)[nH]c3ncc(C#N)cc23)cc1 [Example 30, 3-{4-[3-(Dimethylamino)propoxy]phenyl}-2-phenyl-1H-pyrrolo[2,3-b]pyridine-5-carbonitrile trifluoroacetate]
COc1ccc(-c2[nH]c3ncc(Br)cc3c2-c2ccc(OCCCN(C)C)cc2)cc1 [Example 33, (3-{4-[5-Bromo-2-(4-methoxy-phenyl)-1H-pyrrolo[1,3-b]pyridin-3-yl]-phenoxy}-propyl)-dimethylamine]
NCCCOc1ccc(-c2c(-c3ccccc3)[nH]c3ncc(Br)cc23)cc1 [Example 34, 3-[4-(5-Bromo-2-phenyl-1H-pyrrolo[2,3-b]pyridin-3-yl)phenoxy]propan-1-amine trifluoroacetate]
NCc1ccc(-c2c(-c3ccccc3)[nH]c3ncc(Br)cc23)cc1 [Example 35, 5-Bromo-3-(4-aminomethylphenyl)-2-phenyl-1H-pyrrolo[2,3-b]pyridine]
Brc1cnc2[nH]c(-c3ccccc3)c(-c3ccc(C4=NCCN4)cc3)c2c1 [Example 36, 5-Bromo-3-[4-(4,5-dihydro-1H-imidazol-2-yl)phenyl]-2-phenyl-1H-pyrrolo[2,3-b]pyridine trifluoroacetate]
CC1(C)CNC(c2ccc(-c3c(-c4ccccc4)[nH]c4ncc(Br)cc34)cc2)=N1 [Example 37, 5-Bromo-3-[4-(4,4-dimethyl-4,5-dihydro-1H-imidazol-2-yl)phenyl]-2-phenyl-1H-pyrrolo[2,3-b]pyridine trifluoroacetate]
NCCNC(=O)c1ccc(-c2c(-c3ccccc3)[nH]c3ncc(Br)cc23)cc1 [Example 38, N-(2-Aminoethyl)-4-(5-bromo-2-phenyl-1H-pyrrolo[2,3-b]pyridin-3-yl)benzamide trifluoroacetate]
CC(O)C(O)N(Cc1ccc(-c2c(-c3ccccc3)[nH]c3ncc(Br)cc23)cc1)CC(O)CO (centres unmarked) [Example 39, 3-[[4-(5-Bromo-2-phenyl-1H-pyrrolo[2,3-b]pyridin-3-yl)benzyl](1,2-dihydroxypropyl)amino]propane-1,2-diol trifluoroacetate]
O=C(O)c1ccc(-c2c(-c3ccccc3)[nH]c3ncc(Br)cc23)cc1 [Example 40, 4-(5-Bromo-2-phenyl-1H-pyrrolo[2,3-b]pyridin-3-yl)benzoic acid]
N[C@@H](CCC(=O)NCc1ccc(-c2c(-c3ccccc3)[nH]c3ncc(Br)cc23)cc1)C(=O)O [Example 41, N^5-[4-(5-Bromo-2-phenyl-1H-pyrrolo[2,3-b]pyridin-3-yl)benzyl]glutamine trifluoroacetate]
